Data as given in PubChem BioAssay AID1224830 (NIAID, 2016).
Test: 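Host factors that control LPS-induced TNF expression in human macrophages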 (primary screen). Cells: human THP-1 monocytic leukaemia cells, TNF dual-luciferase reporter clone, PMA-differentiated to macrophage-like cells. Reagents: siRNA pool against human genes, 50 nM. Time to read-out: LPS for 4 h, given about 3 days after siRNA transfection. Treatment: bacterial LPS (TLR4 ligand), 10 ng/ml. Detection: 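Ratio of firefly to renilla light, scaled to the plate median and expressed as a robust z-score per replicate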. Scale: TNF reporter robust z-score: higher = stronger TNF reporter response to LPS. Hit rule: 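Each well counts as active if its z-score is over 2.8 or under -1.5; controls are left without a call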.
This is a random part of about 18,000 deposited reagents. In the full data, about 2,900 (16%) are marked active. 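Calls are made per well; low scores hint the gene aids the LPS response, high scores that it dampens it.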 Repeated entries: four replicate wells of each siRNA pool.

gene symbol	TNF reporter robust z-score	outcome
IL6 (interleukin 6)	-0.63	inactive
IL6 (interleukin 6)	-0.66	inactive
IL6 (interleukin 6)	-0.77	inactive
IL6 (interleukin 6)	-0.25	inactive
CRYBG2 (crystallin beta-gamma domain containing 2)	-1.31	inactive
CRYBG2 (crystallin beta-gamma domain containing 2)	-0.66	inactive
CRYBG2 (crystallin beta-gamma domain containing 2)	-1.45	inactive
CRYBG2 (crystallin beta-gamma domain containing 2)	-0.8	inactive
OR52N2 (olfactory receptor family 52 subfamily N member 2)	0.2	inactive
OR52N2 (olfactory receptor family 52 subfamily N member 2)	0.38	inactive
OR52N2 (olfactory receptor family 52 subfamily N member 2)	0.37	inactive
OR52N2 (olfactory receptor family 52 subfamily N member 2)	-0.22	inactive
NLRP5 (NLR family pyrin domain containing 5)	0.15	inactive
NLRP5 (NLR family pyrin domain containing 5)	-0.53	inactive
NLRP5 (NLR family pyrin domain containing 5)	-0.39	inactive
NLRP5 (NLR family pyrin domain containing 5)	-0.68	inactive
SCGB1D1 (secretoglobin family 1D member 1)	-0.15	inactive
SCGB1D1 (secretoglobin family 1D member 1)	-0.65	inactive
SCGB1D1 (secretoglobin family 1D member 1)	-0.74	inactive
SCGB1D1 (secretoglobin family 1D member 1)	-0.34	inactive
TM9SF1 (transmembrane 9 superfamily member 1)	-0.16	inactive
TM9SF1 (transmembrane 9 superfamily member 1)	0.53	inactive
TM9SF1 (transmembrane 9 superfamily member 1)	0.71	inactive
TM9SF1 (transmembrane 9 superfamily member 1)	0.07	inactive
ACHE (acetylcholinesterase (Yt blood group))	-0.31	inactive
ACHE (acetylcholinesterase (Yt blood group))	0.83	inactive
ACHE (acetylcholinesterase (Yt blood group))	1.15	inactive
ACHE (acetylcholinesterase (Yt blood group))	0.72	inactive
RASD1 (ras related dexamethasone induced 1)	-1.6	active
RASD1 (ras related dexamethasone induced 1)	-1.27	inactive
RASD1 (ras related dexamethasone induced 1)	-0.54	inactive
RASD1 (ras related dexamethasone induced 1)	0.15	inactive
IZUMO1 (izumo sperm-oocyte fusion 1)	0.11	inactive
IZUMO1 (izumo sperm-oocyte fusion 1)	1.43	inactive
IZUMO1 (izumo sperm-oocyte fusion 1)	-0.06	inactive
IZUMO1 (izumo sperm-oocyte fusion 1)	0.46	inactive
RFWD3 (ring finger and WD repeat domain 3)	-1.53	active
RFWD3 (ring finger and WD repeat domain 3)	-0.43	inactive
RFWD3 (ring finger and WD repeat domain 3)	-0.96	inactive
RFWD3 (ring finger and WD repeat domain 3)	-1.39	inactive
TMPRSS11E (transmembrane serine protease 11E)	-0.18	inactive
TMPRSS11E (transmembrane serine protease 11E)	0.92	inactive
TMPRSS11E (transmembrane serine protease 11E)	0.83	inactive
TMPRSS11E (transmembrane serine protease 11E)	1.23	inactive
DPP3 (dipeptidyl peptidase 3)	-0.71	inactive
DPP3 (dipeptidyl peptidase 3)	0.2	inactive
DPP3 (dipeptidyl peptidase 3)	3.4	active
DPP3 (dipeptidyl peptidase 3)	0.84	inactive
ELOF1 (elongation factor 1)	-0.57	inactive
ELOF1 (elongation factor 1)	-0.41	inactive
ELOF1 (elongation factor 1)	-0.6	inactive
ELOF1 (elongation factor 1)	-0.51	inactive
WNT10A (Wnt family member 10A)	-1.04	inactive
WNT10A (Wnt family member 10A)	-1.07	inactive
WNT10A (Wnt family member 10A)	-0.57	inactive
WNT10A (Wnt family member 10A)	-0.53	inactive
RARRES2 (retinoic acid receptor responder 2)	-0.35	inactive
RARRES2 (retinoic acid receptor responder 2)	0.34	inactive
RARRES2 (retinoic acid receptor responder 2)	0.7	inactive
RARRES2 (retinoic acid receptor responder 2)	1.48	inactive
KLHL7 (kelch like family member 7)	1.11	inactive
KLHL7 (kelch like family member 7)	0.75	inactive
KLHL7 (kelch like family member 7)	0.42	inactive
KLHL7 (kelch like family member 7)	0.18	inactive
RGL4 (ral guanine nucleotide dissociation stimulator like 4)	-0.8	inactive
RGL4 (ral guanine nucleotide dissociation stimulator like 4)	0.14	inactive
RGL4 (ral guanine nucleotide dissociation stimulator like 4)	-0.49	inactive
RGL4 (ral guanine nucleotide dissociation stimulator like 4)	-0.78	inactive
SLC22A14	-0.75	inactive
SLC22A14	0.03	inactive
SLC22A14	-0.79	inactive
SLC22A14	0.22	inactive
SLC16A6	-0.81	inactive
SLC16A6	0	inactive
SLC16A6	-0.2	inactive
SLC16A6	-0.01	inactive
FYCO1 (FYVE and coiled-coil domain autophagy adaptor 1)	-1.02	inactive
FYCO1 (FYVE and coiled-coil domain autophagy adaptor 1)	1.59	inactive
FYCO1 (FYVE and coiled-coil domain autophagy adaptor 1)	-0.06	inactive
FYCO1 (FYVE and coiled-coil domain autophagy adaptor 1)	0.08	inactive
PACSIN2 (protein kinase C and casein kinase substrate in neurons 2)	-0.55	inactive
PACSIN2 (protein kinase C and casein kinase substrate in neurons 2)	0.68	inactive
PACSIN2 (protein kinase C and casein kinase substrate in neurons 2)	0	inactive
PACSIN2 (protein kinase C and casein kinase substrate in neurons 2)	-0.56	inactive
DTWD2 (DTW motif tRNA-uridine aminocarboxypropyltransferase 2)	0.08	inactive
DTWD2 (DTW motif tRNA-uridine aminocarboxypropyltransferase 2)	0.41	inactive
DTWD2 (DTW motif tRNA-uridine aminocarboxypropyltransferase 2)	0.73	inactive
DTWD2 (DTW motif tRNA-uridine aminocarboxypropyltransferase 2)	0.84	inactive
EIF4G1 (eukaryotic translation initiation factor 4 gamma 1)	-1.77	active
EIF4G1 (eukaryotic translation initiation factor 4 gamma 1)	-1.83	active
EIF4G1 (eukaryotic translation initiation factor 4 gamma 1)	-1.5	inactive
EIF4G1 (eukaryotic translation initiation factor 4 gamma 1)	-1.69	active
STOX1 (storkhead box 1)	4.13	active
STOX1 (storkhead box 1)	3.76	active
STOX1 (storkhead box 1)	3.92	active
STOX1 (storkhead box 1)	-0.07	inactive
CASTOR3P (CASTOR family member 3, pseudogene)	-0.82	inactive
CASTOR3P (CASTOR family member 3, pseudogene)	-1.01	inactive
CASTOR3P (CASTOR family member 3, pseudogene)	-0.09	inactive
CASTOR3P (CASTOR family member 3, pseudogene)	0.12	inactive
ERMAP	-0.62	inactive
ERMAP	1.03	inactive
ERMAP	0.04	inactive
ERMAP	0.45	inactive
ICAM3 (intercellular adhesion molecule 3)	-0.16	inactive
ICAM3 (intercellular adhesion molecule 3)	0.97	inactive
ICAM3 (intercellular adhesion molecule 3)	-0.53	inactive
ICAM3 (intercellular adhesion molecule 3)	0.19	inactive
EIF2AK4 (eukaryotic translation initiation factor 2 alpha kinase 4)	2.35	inactive
EIF2AK4 (eukaryotic translation initiation factor 2 alpha kinase 4)	-1.04	inactive
EIF2AK4 (eukaryotic translation initiation factor 2 alpha kinase 4)	-0.66	inactive
EIF2AK4 (eukaryotic translation initiation factor 2 alpha kinase 4)	0.14	inactive

Entries listed above marked active, once more:
gene symbol	TNF reporter robust z-score	outcome
RASD1 (ras related dexamethasone induced 1)	-1.6	active
RFWD3 (ring finger and WD repeat domain 3)	-1.53	active
DPP3 (dipeptidyl peptidase 3)	3.4	active
EIF4G1 (eukaryotic translation initiation factor 4 gamma 1)	-1.77	active
EIF4G1 (eukaryotic translation initiation factor 4 gamma 1)	-1.83	active
EIF4G1 (eukaryotic translation initiation factor 4 gamma 1)	-1.69	active
STOX1 (storkhead box 1)	4.13	active
STOX1 (storkhead box 1)	3.76	active
STOX1 (storkhead box 1)	3.92	active
